Out of some 410,000 compounds screened, about 18,000 (4.4%) were called active. Inconclusive results, whose numbers are uncertain, are shown with a selection of clear calls. Cut-off read from the data, not from the text of the source: active = activity change below about -60%; inconclusive = no clear call, values can overlap the other calls; inactive = above about -39%.
Experiment: qHTS Assay for inhibitors of the human cytomegalovirus (HCMV)
Conditions: HFF cells, HCMV-luciferase reporter, 72 h; at 57.5 µM; hits give low values
Method in brief: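 Compounds were evaluated in HFFs infected with an HCMV luciferase reporter virus (MOI 1 PFU/cell). Luciferase in lysates collected 72 h post infection served as the replication measure.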
% is set by controls: 0 for no effect and ±100 for the full control effect.

| Structure (SMILES) | activity change, negative = inhibition |
| --- | --- |
| CC(C)(C)OC(=O)COc1cc(O)c2c(=O)cc(-c3ccccc3)oc2c1 | inconclusive: -52.2% |
| C/C=C/c1cccc(-c2nc(C(=O)N3CCCCC3)cc3c2[C@H](CCO)N(C(=O)NC(C)C)C3)c1 | inconclusive: -55.1% |
| Cc1ccccc1Nc1c(-c2ccncc2)nc2ccc(Cl)cn12 | inconclusive: -58.2% |
| O=C(Nc1ccc(Cl)cc1)Nc1ccc(N2CCCC2)c(S(=O)(=O)Nc2ccccc2Cl)c1 | active: -99.4% |
| O=C(c1ccc(CS(=O)c2ccccc2Cl)o1)N1CCN(c2cccc(Cl)c2)CC1 (configuration not stated) | active: -93% |
| Cc1ccc(/C=C2/SC(=S)N(CCC(=O)N3CCN(C)CC3)C2=O)cc1 | active: -74.1% |
| COc1ccccc1CCNC1C2CC3CC(C2)CC1C3 (configuration not stated) | inconclusive: -48.5% |
| O=C(N/N=C(\CC(=O)c1cccs1)C(F)(F)F)c1ccncc1 | active: -76.5% |
| Cc1nc(Sc2ccccc2)c(C#N)c(C)c1[N+](=O)[O-] | active: -103% |
| Cc1cc(NC(=O)Nc2cccc([N+](=O)[O-])c2)no1 | inconclusive: -40.7% |
| CC(CNC(=O)c1cc(COc2ccc3ncccc3c2)on1)c1ccccc1 (configuration not stated) | active: -76% |
| COCCC(=O)N1CCC(Oc2ccc(C(=O)NCCn3cccn3)cc2)CC1 | inactive: 12.1% |
| CN(O)/C=c1/ccc2c(n1)C(=O)C=CC=2 | inactive: 35.8% |
| COc1cc(CO)ccc1OCC(=O)Nc1cccc2ccccc12 | inconclusive: -40.3% |
| CCC(C)NC(=O)c1nc2c(nnn2Cc2ccccc2Cl)c(=O)[nH]1 (configuration not stated) | inconclusive: -49.5% |
| COc1ccc(N2C(=NC(=O)CCC3CCCC3)SC3CS(=O)(=O)CC32)cc1 (configuration not stated) | inconclusive: -50.6% |
| Cc1c(C(=O)NCCN(C)C)sc2nc3n(c(=O)c12)CCC3 | inactive: 15.1% |
| O=C(Nc1ccc(-c2noc(-c3ccccc3F)n2)cc1)c1cccs1 | inactive: 24.4% |
| CN(CC(=O)Nc1ccccc1-c1ccccc1)Cc1ccccc1Cl | inconclusive: -55.4% |
| COc1cccc(C2(c3cccc(OC)c3)CC2C(=O)Nc2ccccc2Cl)c1 (configuration not stated) | inconclusive: -59.5% |
| COc1cc(OC)c2nc(C)c3c(c2c1)N(c1ccc(O)cc1)CC3 | active: -103% |
| CCOc1ccc(NC(=O)n2ncc3c(C)cccc32)cc1 | inactive: 75.1% |

| Structure (SMILES) | activity change, negative = inhibition |
| --- | --- |
| CN(C)S(=O)(=O)c1ccc(N2CCCC2)c(C(=O)Nc2nc(-c3ccc(F)cc3)cs2)c1 | inactive: 52.8% |
| O=C1CSC(c2cn(-c3ccccc3)nc2-c2cc3ccccc3oc2=O)N1Cc1ccco1 (configuration not stated) | inactive: 105% |
| Cc1cc2ccccc2nc1SCC(=O)NC1CCCC1 | inconclusive: -41.3% |
| COc1ccc(CC(N)c2csc(Nc3ncccn3)n2)cc1 (configuration not stated) | inconclusive: -51.4% |
| Cc1c(C(=O)NCCN2CCOCC2)sc2nc(-c3ccc(F)cc3)cn12 | inconclusive: -49.5% |
| COc1ccc(NC(=O)c2ccc(OCC3CCCO3)cc2)cc1OC (configuration not stated) | inactive: -2.64% |
| COc1ccc(/C=C(/C#N)c2nc(-c3ccc(Br)cc3)cs2)cc1 | inactive: 1.97% |
| COc1ccc(NC(=O)c2c(C)oc3ccc(O)c(CN4CCN(Cc5ccccc5)CC4)c23)cc1 | inconclusive: -53.5% |
| O=[N+]([O-])c1ccc(N2CCN(c3cccc(Cl)c3)CC2)cn1 | inconclusive: -41.2% |
| CCOC(=O)Cn1nnnc1C(C(C)C)N(Cc1cc2c(C)cc(C)cc2[nH]c1=O)C1CCCC1 (configuration not stated) | inactive: -0.895% |
| Oc1ccccc1-n1c(-c2ccccc2)ccc1-c1ccccc1 | active: -76.4% |
| O=S1(=O)N=C(N/N=C/C=C/c2ccccc2)c2ccccc21 | inconclusive: -44.4% |
| Cc1nc(N)c(C#N)c(-c2cccnc2)c1-c1ccccc1 | inconclusive: -52.1% |
| Cc1ccc(N(C(=O)c2ccn[nH]2)C(C(=O)NC2CCCC2)c2cccs2)cc1 (configuration not stated) | inconclusive: -44.6% |
| CC(=O)Nc1ccc(C(=O)OCC(=O)N(c2ccccc2)C2CCCCC2)cc1 | inconclusive: -59.5% |
| CC(C)[C@H](NC(=O)c1cccc(CN(Cc2ccccc2)C(=O)/C=C/c2ccccc2)c1)C(=O)O | inconclusive: -56.9% |
| CCOC(=O)[C@]12Cc3cc(C)ccc3[C@H]1N(C1CCCCC1)C(=O)c1ccccc12 | active: -103% |
| Cc1ccc(/C=C/c2onc(C)c2S(=O)(=O)N2CCC(C(=O)N3CCCCC3)CC2)cc1 | inactive: -38.5% |
| CN(c1ccccc1)S(=O)(=O)c1ccc(Cl)c(C(=O)OCC(N)=O)c1 | inconclusive: -56.8% |
| C#Cc1cccc(C(=O)N(Cc2cccnc2)CC2CCCN(C3CCCCC3)C2)c1 (configuration not stated) | active: -63% |
| Cc1ccc(NC(=O)CCCc2c[nH]c3ccccc23)nc1 | active: -98.5% |
| N#CCCN(C(=O)COC(=O)c1cc(S(=O)(=O)N2CCOCC2)ccc1Cl)c1ccc(F)cc1 | active: -71.4% |

Entries listed so far that contain two or more sulfur atoms (3):

| Structure (SMILES) | activity change, negative = inhibition |
| --- | --- |
| Cc1ccc(/C=C2/SC(=S)N(CCC(=O)N3CCN(C)CC3)C2=O)cc1 | active: -74.1% |
| COc1ccc(N2C(=NC(=O)CCC3CCCC3)SC3CS(=O)(=O)CC32)cc1 (configuration not stated) | inconclusive: -50.6% |
| CN(C)S(=O)(=O)c1ccc(N2CCCC2)c(C(=O)Nc2nc(-c3ccc(F)cc3)cs2)c1 | inactive: 52.8% |

Reformatted: entries from further up.
Structure (SMILES) | activity change, negative = inhibition
Cc1c(C(=O)NCCN2CCOCC2)sc2nc(-c3ccc(F)cc3)cn12 | inconclusive: -49.5%
COc1ccc(NC(=O)c2ccc(OCC3CCCO3)cc2)cc1OC (configuration not stated) | inactive: -2.64%
COc1ccc(/C=C(/C#N)c2nc(-c3ccc(Br)cc3)cs2)cc1 | inactive: 1.97%

(further entries)

| Structure (SMILES) | activity change, negative = inhibition |
| --- | --- |
| O=C(NCc1ccncc1)[C@@H]1CCCN1C(=O)[C@@H]1CCCN1C(=O)c1ccccc1Cl | inactive: 0.96% |
| COc1cc(NC(=O)c2c(C)oc3ncnc(N4CCCCC4)c23)cc(OC)c1 | inconclusive: -40% |
| COc1ccc(CN2C(=O)C(Cc3ccccc3)Nc3ncnc(N4CCN(c5ccccc5)CC4)c32)cc1 (configuration not stated) | inconclusive: -45.4% |
| O=C(NNC(=O)c1ccc2ccccc2n1)c1ccc(O)cc1 | inconclusive: -53.4% |
| NC1=CC(=O)C(=O)c2ccccc21 | active: -63.6% |
| N/C(CN1CCSCC1)=N\OCc1c(F)cccc1Cl | inactive: 53.9% |
| CCCCCCNC(=O)O[C@H]1Cn2c(=O)n(CCCCCC)c(=O)n2[C@@H]2CN(S(=O)(=O)c3ccc(C)cc3)C[C@]12O | active: -103% |
| C=CCn1c(SCC(=O)Nc2ccccc2C)nc2sc(C)c(C)c2c1=O | inconclusive: -45.9% |
| C#CCN1CCN(c2cccc(C(F)(F)F)c2)CC1 | inconclusive: -42.6% |
| CSc1cc(-c2ccccc2)n(C)c(=O)c1C#N | active: -66.5% |
| Cc1cc(C)n(-c2nc(NCCN(C)C)c3c4c(sc3n2)COC(C)(C)C4)n1 | inconclusive: -57.2% |
| CC(C)(C)C(=O)OCc1ccc(C2=CC(=O)CC(C)(C)C2=O)cc1 | inactive: -13% |
| CCC(C)(C)C1CCc2[nH]nc(C(=O)N/N=C(\C)c3ccco3)c2C1 (configuration not stated) | inconclusive: -55.9% |
| O=C(Nc1ccc(C(=O)N2CCN(c3ccccc3)CC2)cc1)C1=CSCCO1 | inconclusive: -55% |
| C#CCOc1ccccc1/C=N/NC(=O)c1ccccc1OCc1ccccc1 | inconclusive: -41.4% |
| CCOC(=O)N1CCC(NC(=O)c2ccc3c(c2)N=C(C)c2ccccc2S3)CC1 | inconclusive: -48% |
| O=C(C1CCCN(c2ncnc3c2nc2n3CCCCC2)C1)N1CCN(c2ccc(Cl)cc2)CC1 (configuration not stated) | active: -83.3% |
| Cc1csc(NC(=O)C2=NN(c3ccccc3)C(=O)CC2)n1 | inconclusive: -41.8% |
| COc1cc(CC(C#N)(CO)c2nc3ccccc3[nH]2)ccc1OC(F)F (configuration not stated) | inconclusive: -45.6% |
| Nc1cc(S(=O)(=O)N2CCCCC2)ccc1Oc1ccccc1 | inactive: -39.5% |
| CCOc1ccc(Nc2c(S(=O)(=O)c3ccccc3)cnc3ccccc23)cc1 | active: -70% |
| CC(C)(C)CN1CCNC(=O)C1CC(=O)N1CCOc2ccccc2C1 (configuration not stated) | inconclusive: -43.8% |

| Structure (SMILES) | activity change, negative = inhibition |
| --- | --- |
| O=C(N1CCCCC1)N1CCN(c2ccc(Cl)cc2)CC1 | inconclusive: -46.1% |
| CN(C)c1ccc(C=Cc2ccnc3c(O)cccc23)cc1 | active: -98.6% |
| CS(=O)(=O)N(Cc1ccc(Cl)cc1)c1ccc(C(=O)NCC2CCCO2)cc1 (configuration not stated) | inconclusive: -49.3% |
| O=C1c2ccccc2C(=O)c2c1oc(C(F)(F)F)c2C(=O)c1ccccc1 | active: -97.7% |
| CCOC(=O)c1nn(-c2ccccc2)c(=O)c2c(N)scc12 | inactive: 3.73% |
| COc1ccc(C2=Nn3c(nnc3-c3ccccc3)SC2)cc1OC | inactive: 3.83% |
| CNC(=S)NNC(=O)c1ccccc1F | inconclusive: -57.2% |
| O=C(CN(Cc1ccco1)Cc1ccco1)Nc1cc(S(=O)(=O)N2CCCCC2)ccc1Cl | active: -83.2% |
| CC[n+]1c(/C=C/Nc2ccccc2)sc2ccccc21 | inactive: -16% |
| COc1ccc(NC(=O)/C=C\C(=O)N(c2ccc(C(C)C)cc2)C(C(=O)NCc2ccco2)c2ccc(F)cc2)cc1 (configuration not stated) | inconclusive: -57.8% |
| C#CC(C)(C)NC(=O)c1cnc(-c2ccccc2)nc1-c1ccccc1 | inconclusive: -58.4% |
| O=C(Nc1ccc(N2CCOCC2)c(Cl)c1)c1ccccc1Cl | inactive: -36.2% |
| O=C(NCCN1C(=O)S/C(=C\c2cccs2)C1=O)[C@H](Cc1ccccc1)N1C(=O)c2ccccc2C1=O | inconclusive: -48.9% |
| COc1ccccc1NS(=O)(=O)c1cccc(NC(=O)Nc2ccc(Cl)cc2)c1 | active: -85.2% |
| COc1ccccc1CCC(=O)NNC(=O)c1ccncc1 | inconclusive: -40.3% |
| CCC(NC(=O)CNC(=O)c1ccc2c(c1)OCO2)c1ccc(Br)cc1 (configuration not stated) | inactive: -28.9% |
| CCN(C(=O)C1CCN(c2ncnc3c2nc2n3CCCCC2)CC1)c1cccc(Cl)c1 | inconclusive: -41.5% |
| O=C(NCc1cccs1)c1ccc([N+](=O)[O-])cc1 | inconclusive: -49.6% |
| COc1ccc(/C=N/NC(=O)c2nc(Cl)c(Cl)c(N)c2Cl)cc1COc1ccccc1F | inactive: 14.1% |
| O=C(NCCN1CCN(c2ccccc2)CC1)C1CCN(S(=O)(=O)c2cccs2)CC1 | inconclusive: -42.5% |
| O=C(N/N=C/c1c(O)ccc2ccccc12)c1ccc(Br)o1 | active: -98.7% |
